Experimental data: the supplement of paper PMC12823440, “Inhibitors supercharge kinase turnover through native proteolytic circuits” (Nature, 2025)
Where a name gives a salt, the structure may show the parent alone. The list shows a part of the results. The calls rarely recur for the same compound in another form.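 In K562 cells expressing nanoluciferase-fused kinases, luminescence was recorded at 4 h intervals between 2 and 18 h, normalized as percent of control with DMSO at 100% and a positive control at 0%. A significant (2 sigma) signal drop marks a time point as decreased. The authors' rule for a hit is not shown and takes in more than the number of time points.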

Sequences of proteins named here, by UniProt entry; tags and fusion partners are left off. A change or cut given only in a name is not applied to a line headed by its entry.
UniProt Q8IWU2: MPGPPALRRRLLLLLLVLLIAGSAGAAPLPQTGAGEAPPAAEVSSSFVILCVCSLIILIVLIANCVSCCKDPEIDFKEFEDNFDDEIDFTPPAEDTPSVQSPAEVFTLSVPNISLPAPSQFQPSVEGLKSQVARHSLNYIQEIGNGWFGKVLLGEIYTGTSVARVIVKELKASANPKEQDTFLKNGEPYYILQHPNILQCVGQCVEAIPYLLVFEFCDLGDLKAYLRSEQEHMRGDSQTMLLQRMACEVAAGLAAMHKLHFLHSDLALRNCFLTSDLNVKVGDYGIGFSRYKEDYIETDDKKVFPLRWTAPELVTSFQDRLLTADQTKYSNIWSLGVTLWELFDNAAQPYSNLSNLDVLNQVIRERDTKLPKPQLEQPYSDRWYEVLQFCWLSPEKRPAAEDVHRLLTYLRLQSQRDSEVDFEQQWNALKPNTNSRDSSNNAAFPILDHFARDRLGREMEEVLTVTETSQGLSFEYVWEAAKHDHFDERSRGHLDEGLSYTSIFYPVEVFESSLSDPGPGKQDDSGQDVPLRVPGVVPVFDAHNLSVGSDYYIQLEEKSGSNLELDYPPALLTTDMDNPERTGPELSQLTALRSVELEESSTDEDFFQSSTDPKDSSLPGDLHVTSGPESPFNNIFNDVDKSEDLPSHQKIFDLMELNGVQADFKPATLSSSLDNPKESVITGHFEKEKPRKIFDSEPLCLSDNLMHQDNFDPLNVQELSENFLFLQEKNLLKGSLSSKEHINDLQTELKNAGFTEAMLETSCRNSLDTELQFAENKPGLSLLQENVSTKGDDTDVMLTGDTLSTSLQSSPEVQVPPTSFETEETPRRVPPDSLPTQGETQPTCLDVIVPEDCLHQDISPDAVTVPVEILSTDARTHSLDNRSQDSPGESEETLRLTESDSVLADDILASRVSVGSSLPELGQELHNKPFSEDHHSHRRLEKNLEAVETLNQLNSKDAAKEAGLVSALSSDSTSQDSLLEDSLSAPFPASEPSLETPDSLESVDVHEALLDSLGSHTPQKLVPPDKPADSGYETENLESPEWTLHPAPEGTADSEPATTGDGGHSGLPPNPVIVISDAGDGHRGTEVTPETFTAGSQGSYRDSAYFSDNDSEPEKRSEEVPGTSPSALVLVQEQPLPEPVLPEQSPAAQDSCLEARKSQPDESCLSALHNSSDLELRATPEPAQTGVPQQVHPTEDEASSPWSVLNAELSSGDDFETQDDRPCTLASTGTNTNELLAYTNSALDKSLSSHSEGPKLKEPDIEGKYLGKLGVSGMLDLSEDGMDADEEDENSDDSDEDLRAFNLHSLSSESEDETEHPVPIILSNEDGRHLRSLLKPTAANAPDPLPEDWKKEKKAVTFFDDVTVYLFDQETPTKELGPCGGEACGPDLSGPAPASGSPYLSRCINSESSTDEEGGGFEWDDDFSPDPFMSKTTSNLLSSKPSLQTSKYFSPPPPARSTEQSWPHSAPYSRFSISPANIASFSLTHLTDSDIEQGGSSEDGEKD

Biological target: LMTK2 (UniProt Q8IWU2)
Assay: kinase-Nluc reporter destabilization hit call (1 = scored as downregulated) (binary); higher = compound decreases kinase abundance
Settings: K562; 2-18 h

kinase-Nluc reporter destabilization hit call, inactive:
Cn1cc(Nc2nccc(N3C[C@H]4CC[C@@H](C3)N4C(=O)[C@@H]3CC3(F)F)n2)cn1 (10 µM) 0
CC(C)=CC(=O)CCC(=O)N1CCN(Cc2cc3nc(-c4cccc5[nH]ncc45)nc(N4CCOCC4)c3s2)CC1 (10 µM) 0
CN(C)CCN(Cc1ccc(Cl)cc1)c1ccccn1 [Chloropyramine hydrochloride] (10 µM) 0
COc1cc([N+](=O)[O-])ccc1S(=O)(=O)N1C[C@@H](CN2CCN(c3ccccn3)CC2)[C@H](c2cccc(F)c2)C1 (relative stereo) (10 µM) 0
Cc1noc(C)c1-c1ccc(-c2cc(C(N)=O)c(NC(N)=O)s2)c(O[C@H]2CCNC2)c1 (10 µM) 0
CC(C)(C)NC(=O)c1cncn1C1CCN(c2ccc(-c3nnc(C(F)(F)F)o3)cn2)CC1 (10 µM) 0
COc1cccc(-n2c(=O)[nH]c3cc(Cl)n(-c4ccc(-c5cccc(OC)c5O)cc4)c3c2=O)c1 (2.5 µM) 0
O=C(Nc1cccnc1)c1cc(C(=O)c2c(F)cccc2Br)c[nH]1 (10 µM) 0
O=C(Nc1cc(Oc2cc(F)c(NC(=O)C3(C(=O)Nc4ccc(F)cc4)CC3)cc2F)ccn1)C1CC1 [Altiratinib] (10 µM) 0
O=C1NC(=O)C(=Cc2ccc(-c3ccc(F)cc3)o2)S1 (stereo in doubt) (10 µM) 0
O=C(NC(NC(=S)Nc1ccc(F)c([N+](=O)[O-])c1)C(Cl)(Cl)Cl)C(c1ccccc1)c1ccccc1 (stereo unspecified) (10 µM) 0
Nc1ncnc2c1ncn2[C@@H]1O[C@H](CO)C[C@H]1O [Cordycepin] (10 µM) 0
CC(C)(NS(=O)(=O)c1ccc2c(Cl)cnc(N=C(N)N)c2c1)C(=O)O (10 µM) 0
COc1cc2ncnc(Nc3cccc(Cl)c3)c2cc1OC (10 µM) 0
CCOc1ccc(C(=O)Nc2ncc([N+](=O)[O-])s2)cc1 (10 µM) 0
CC(C)CN[C@H]1CS(=O)(=O)C[C@@H]1S(=O)(=O)c1ccc(Cl)cc1 (10 µM) 0
CCn1c(=O)c(-c2ccc(-c3cncs3)cc2Cl)cc2cnc(Nc3ccc(N4CCN(C)CC4)cc3)nc21 (2.5 µM) 0
C[C@]1(O)CCC[C@@H]1n1c(=O)c(C(F)F)cc2cnc(NC3CCN(S(C)(=O)=O)CC3)nc21 (10 µM) 0
COc1c(NC(=O)C(=O)c2ccc(OCCN3CCOCC3)c3ccccc23)cc(C(C)(C)C)cc1NS(C)(=O)=O (2.5 µM) 0
COc1cc(S(C)(=O)=O)ccc1Nc1nc2ccc(-c3ccc(NC(=O)[C@H](C)c4ccc(F)cc4)cc3)cn2n1 [Empesertib] (10 µM) 0
Nc1cc(Nc2ccc(S(N)(=O)=O)cc2)ncn1 (10 µM) 0
O=C(O)c1cc(O)ccc1O [2,5-Dihydroxybenzoic acid] (10 µM) 0
OCCNC1CCCc2c1[nH]c1ccc(-c3ccccc3)cc21 (stereo unspecified) (2.5 µM) 0
CC(C)CC1(O)CCN(C(=O)c2ccc(NS(=O)(=O)c3cccc4nccnc34)cc2)CC1 (10 µM) 0
CNC(=O)c1ccc(-c2cnc3cnc(C(=O)N(C)c4ccc(Cl)cc4)cn23)cc1 (2.5 µM) 0
Cc1cc(Nc2cc(Cl)nc(Oc3ccc([N+](=O)[O-])cc3)n2)n[nH]1 [Autophinib] (2.5 µM) 0
CN1CCN(c2ccc(Nc3ncc4nc(Nc5ccccc5)n([C@@H]5CCN(S(=O)(=O)C6CC6)C5)c4n3)cc2)CC1 (2.5 µM) 0
Cc1c(CN2CCN(S(C)(=O)=O)CC2)sc2c(N3CCOCC3)nc(-c3cnc(N)nc3)nc12 (2.5 µM) 0
O=C(NCCCNc1nc(Nc2cccc(NC(=O)N3CCCC3)c2)ncc1I)c1cccs1 (2.5 µM) 0
O=C(/C=C/c1ccc(O[C@@H]2O[C@H](CO)[C@@H](O)[C@H](O)[C@H]2O[C@@H]2OC[C@](O)(CO)[C@H]2O)cc1)c1ccc(O)cc1O [Isoliquiritin apioside] (10 µM) 0
O=C1NC(=O)/C(=C/c2ccc3c(c2)OC(F)(F)O3)S1 (10 µM) 0

Arranged by SMILES length (ascending): part of the list above.
kinase-Nluc reporter destabilization hit call, inactive:
O=C(O)c1cc(O)ccc1O [2,5-Dihydroxybenzoic acid] (10 µM) 0
Nc1cc(Nc2ccc(S(N)(=O)=O)cc2)ncn1 (10 µM) 0
CCOc1ccc(C(=O)Nc2ncc([N+](=O)[O-])s2)cc1 (10 µM) 0
